PubChem BioAssay AID1259308 – NCATS – 2017

Assay: 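Candidate targets for better recombinant protein yield in mammalian cells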 (primary screen)
Cell system: human HEK293 embryonic kidney cells stably expressing firefly luciferase (HEK-CMV-Luc2-Hygro)
Reagent: single siRNA against human genes, 0.8 pmol siRNA per well
Duration: 72 h
Read-out: 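Reporter luminescence and viable-cell signal on separate replicate plates, given as percent of non-targeting control and median/MAD z-scores, plus per-cell luciferase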
Scale: total luciferase, z-score: higher = more reporter protein produced
Call rule: 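Active when the median/MAD z-score for overall luciferase is greater than 3; a gene was taken forward for validation with new siRNAs if at least two of its three siRNAs passed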
Calls: active = raised luciferase; inactive = no rise
The whole screen tested about 59,000 reagents; shown is an unselected part. Over the whole deposit, about 1,510 (2.6%) were called active. 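Calls use total luciferase alone and ignore viability, so some active siRNAs may act by altering cell number.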 Reagents against one gene are numbered here. Further read-outs or replicates are left out here.

| target gene | reagent no. | total luciferase, z-score | activity call |
| --- | --- | --- | --- |
| KRTCAP2 | 1 | 1.2 | inactive |
| KRTCAP2 | 2 | -0.0488 | inactive |
| KRTCAP2 | 3 | -0.343 | inactive |
| ZIM2 | 1 | 0.216 | inactive |
| ZIM2 | 2 | 0.188 | inactive |
| ZIM2 | 3 | -1.77 | inactive |
| DLX6-AS1 | 1 | -1.08 | inactive |
| DLX6-AS1 | 2 | 0.491 | inactive |
| DLX6-AS1 | 3 | 0.997 | inactive |
| RHOXF2 | 1 | 1.59 | inactive |
| RHOXF2 | 2 | -0.713 | inactive |
| RHOXF2 | 3 | 1.22 | inactive |
| TSPO2 | 1 | 1.44 | inactive |
| TSPO2 | 2 | 0.406 | inactive |
| TSPO2 | 3 | -0.998 | inactive |
| ARL17B | 1 | -0.823 | inactive |
| ARL17B | 2 | -0.559 | inactive |
| ARL17B | 3 | 0.789 | inactive |
| ODF2 | 1 | -0.919 | inactive |
| ODF2 | 2 | -0.56 | inactive |
| ODF2 | 3 | 1.65 | inactive |
| TOR4A | 1 | -0.2 | inactive |
| TOR4A | 2 | 0.289 | inactive |
| TOR4A | 3 | 0.412 | inactive |

Targets listed so far whose target name begins with R or r:
| target gene | reagent no. | total luciferase, z-score | activity call |
| --- | --- | --- | --- |
| RHOXF2 | 1 | 1.59 | inactive |
| RHOXF2 | 2 | -0.713 | inactive |
| RHOXF2 | 3 | 1.22 | inactive |
